A short description of the data set: Compared complexation with the buffers (chelate + 69GaCl3 in 0.1M buffer pH4, ambient temperature, LC/MS). The note with it: 69GaCl3 1.5 eq, AT.

We go through eight molecules from patent US20120009124A1, “USE OF BUFFERS FOR RADIONUCLIDE COMPLEXATION” (GUERBET, priority 2009, published 2012).

Regarding `O=C1O[C@H]([C@@H](O)CO)C(O)=C1O` [ascorbate], the “time to complete complexation” value is, setting by setting: (chelate NOTA) less than 15 min; (chelate PCTA) less than 15 min. Consider `O=C(O)O` [carbonate], for which the “time to complete complexation” value reads like this: (chelate NOTA) less than 15 min; (chelate PCTA) less than 15 min.

For `CC(O)C(=O)O` (stereo not shown) [lactate], the “time to complete complexation” value (chelate NOTA) is less than 15 min and the “time to complete complexation” value (chelate PCTA) is listed as less than 15 min. On to `O=C(O)/C=C\C(=O)O` [maleate], for which, where the note is “chelate NOTA”, the “time to complete complexation” value is less than 15 min. Regarding `O=C(O)CCC(=O)O` [succinate], under “chelate NOTA”, the “time to complete complexation” value is less than 15 min. `O=C(O)C(O)C(O)C(=O)O` (stereo not shown) [tartrate]: for the setting “chelate NOTA”, the “time to complete complexation” value is less than 15 min. With citrate [reference compound], the “Results (complexation of gallium by the chelate)” value is “A large amount of ligand, a small amount of complex” (chelate NOTA) and “A large amount of ligand; a small amount of complex” (chelate PCTA).

As for phosphate, for the setting “chelate NOTA”, the “Results (complexation of gallium by the chelate)” value is listed as “Complete complexation” and the “time to complete complexation” value is on record as less than 15 min.
